Experimental data: the supplement of paper PMC8728848
Some of the results follow.

Tests used:
Assay in all cases: glycan array binding signal (z-score within array); higher = stronger binding
Conditions in all cases: glycan notation: IUPAC condensed, linker removed
[1] = target: Gal(b1-4)GlcNAc(b1-3)Gal(b1-4)GlcNAc(b1-2)[Gal(b1-4)GlcNAc(b1-3)Gal(b1-4)GlcNAc(b1-6)]Man(a1-6)[Gal(b1-4)GlcNAc(b1-3)Gal(b1-4)GlcNAc(b1-2)Man(a1-3)]Man(b1-4)GlcNAc(b1-4)GlcNAc
Outline: (§1)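 The binding signal is a Z-score computed within each array. Data were drawn from 3228 arrays in the Consortium for Functional Glycomics database, restricted to those with a known protein sequence. Scores were averaged over arrays of the same protein sequence at different concentrations or buffers, and over linkers, and negative values can be taken as non-binding.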

[2] = target: Gal(b1-4)GlcNAc(b1-3)Gal(b1-4)GlcNAc(b1-2)[Gal(b1-4)GlcNAc(b1-3)Gal(b1-4)GlcNAc(b1-6)]Man(a1-6)[Gal(b1-4)GlcNAc(b1-3)Gal(b1-4)GlcNAc(b1-2)Man(a1-3)]Man(b1-4)GlcNAc(b1-4)[Fuc(a1-6)]GlcNAc
Outline: as §1

[3] = target: Gal(b1-4)GlcNAc(b1-3)Gal(b1-4)GlcNAc(b1-3)Gal(b1-4)GlcNAc
Outline: as §1

[4] = target: Gal(b1-4)GlcNAc(b1-3)Gal(b1-4)GlcNAc(b1-3)Gal(b1-4)GlcNAc(b1-2)Man(a1-3)[Gal(b1-4)GlcNAc(b1-3)Gal(b1-4)GlcNAc(b1-3)Gal(b1-4)GlcNAc(b1-2)Man(a1-6)]Man(b1-4)GlcNAc(b1-4)GlcNAc
Outline: as §1

[5] = target: Gal(b1-4)GlcNAc(b1-3)Gal(b1-4)GlcNAc(b1-3)Gal(b1-4)GlcNAc(b1-2)Man(a1-3)[Gal(b1-4)GlcNAc(b1-3)Gal(b1-4)GlcNAc(b1-3)Gal(b1-4)GlcNAc(b1-2)Man(a1-6)]Man(b1-4)GlcNAc(b1-4)[Fuc(a1-6)]GlcNAc
Outline: as §1

[6] = target: Gal(b1-4)GlcNAc(b1-3)Gal(b1-4)GlcNAc(b1-3)Gal(b1-4)GlcNAc(b1-2)[Gal(b1-4)GlcNAc(b1-3)Gal(b1-4)GlcNAc(b1-3)Gal(b1-4)GlcNAc(b1-6)]Man(a1-6)[Gal(b1-4)GlcNAc(b1-3)Gal(b1-4)GlcNAc(b1-3)Gal(b1-4)GlcNAc(b1-2)Man(a1-3)]Man(b1-4)GlcNAc(b1-4)[Fuc(a1-6)]GlcNAc
Outline: as §1

[7] = target: Gal(b1-4)GlcNAc(b1-3)Gal(b1-4)GlcNAc(b1-3)Gal(b1-4)GlcNAc(b1-3)Gal(b1-4)GlcNAc(b1-2)Man(a1-3)[Gal(b1-4)GlcNAc(b1-3)Gal(b1-4)GlcNAc(b1-3)Gal(b1-4)GlcNAc(b1-3)Gal(b1-4)GlcNAc(b1-2)Man(a1-6)]Man(b1-4)GlcNAc(b1-4)GlcNAc
Outline: as §1

[8] = target: Gal(b1-4)GlcNAc(b1-3)Gal(b1-4)GlcNAc(b1-3)Gal(b1-4)GlcNAc(b1-3)Gal(b1-4)GlcNAc(b1-2)Man(a1-3)[Gal(b1-4)GlcNAc(b1-3)Gal(b1-4)GlcNAc(b1-3)Gal(b1-4)GlcNAc(b1-3)Gal(b1-4)GlcNAc(b1-2)Man(a1-6)]Man(b1-4)GlcNAc(b1-4)[Fuc(a1-6)]GlcNAc
Outline: as §1

[9] = target: Gal(b1-4)GlcNAc(b1-3)Gal(b1-4)GlcNAc(b1-3)Gal(b1-4)GlcNAc(b1-3)Gal(b1-4)GlcNAc(b1-2)[Gal(b1-4)GlcNAc(b1-3)Gal(b1-4)GlcNAc(b1-3)Gal(b1-4)GlcNAc(b1-3)Gal(b1-4)GlcNAc(b1-6)]Man(a1-6)[Gal(b1-4)GlcNAc(b1-3)Gal(b1-4)GlcNAc(b1-3)Gal(b1-4)GlcNAc(b1-3)Gal(b1-4)GlcNAc(b1-2)Man(a1-3)]Man(b1-4)GlcNAc(b1-4)[Fuc(a1-6)]GlcNAc
Outline: as §1

[10] = target: Gal(b1-4)GlcNAc(b1-3)Gal(b1-4)GlcNAc(b1-3)Gal(b1-4)GlcNAc(b1-3)Gal(b1-4)GlcNAc(b1-3)Gal(b1-4)GlcNAc(b1-2)Man(a1-3)[Gal(b1-4)GlcNAc(b1-3)Gal(b1-4)GlcNAc(b1-3)Gal(b1-4)GlcNAc(b1-3)Gal(b1-4)GlcNAc(b1-3)Gal(b1-4)GlcNAc(b1-2)Man(a1-6)]Man(b1-4)GlcNAc(b1-4)GlcNAc
Outline: as §1

[11] = target: Gal(b1-4)GlcNAc(b1-3)Gal(b1-4)GlcNAc(b1-3)Gal(b1-4)GlcNAc(b1-3)Gal(b1-4)GlcNAc(b1-3)Gal(b1-4)GlcNAc(b1-2)Man(a1-3)[Gal(b1-4)GlcNAc(b1-3)Gal(b1-4)GlcNAc(b1-3)Gal(b1-4)GlcNAc(b1-3)Gal(b1-4)GlcNAc(b1-3)Gal(b1-4)GlcNAc(b1-2)Man(a1-6)]Man(b1-4)GlcNAc(b1-4)[Fuc(a1-6)]GlcNAc
Outline: as §1

[12] = target: Gal(b1-4)GlcNAc(b1-3)Gal(b1-4)GlcNAc(b1-3)Gal(b1-4)GlcNAc(b1-3)Gal(b1-4)GlcNAc(b1-3)Gal(b1-4)GlcNAc(b1-2)[Gal(b1-4)GlcNAc(b1-3)Gal(b1-4)GlcNAc(b1-3)Gal(b1-4)GlcNAc(b1-3)Gal(b1-4)GlcNAc(b1-3)Gal(b1-4)GlcNAc(b1-6)]Man(a1-6)[Gal(b1-4)GlcNAc(b1-3)Gal(b1-4)GlcNAc(b1-3)Gal(b1-4)GlcNAc(b1-3)Gal(b1-4)GlcNAc(b1-3)Gal(b1-4)GlcNAc(b1-2)Man(a1-3)]Man(b1-4)GlcNAc(b1-4)[Fuc(a1-6)]GlcNAc
Outline: as §1

[13] = target: Gal(b1-4)GlcNAc(b1-3)Gal(b1-4)GlcNAc(b1-3)Gal(b1-4)GlcNAc(b1-3)Gal(b1-4)GlcNAc(b1-3)Gal(b1-4)GlcNAc(b1-3)Gal(b1-4)GlcNAc(b1-2)Man(a1-3)[Gal(b1-4)GlcNAc(b1-3)Gal(b1-4)GlcNAc(b1-3)Gal(b1-4)GlcNAc(b1-3)Gal(b1-4)GlcNAc(b1-3)Gal(b1-4)GlcNAc(b1-3)Gal(b1-4)GlcNAc(b1-2)Man(a1-6)]Man(b1-4)GlcNAc(b1-4)GlcNAc
Outline: as §1

[14] = target: Gal(b1-4)GlcNAc(b1-3)Gal(b1-4)GlcNAc(b1-3)GalNAc
Outline: as §1

[15] = target: Gal(b1-4)GlcNAc(b1-3)Gal(b1-4)GlcNAc(b1-3)[Gal(b1-4)GlcNAc(b1-3)Gal(b1-4)GlcNAc(b1-6)]GalNAc
Outline: as §1

[16] = target: Gal(b1-4)GlcNAc(b1-3)Gal(b1-4)GlcNAc(b1-6)[Gal(b1-3)]GalNAc
Outline: as §1

[17] = target: Gal(b1-4)GlcNAc(b1-3)Gal(b1-4)[Fuc(a1-3)]GlcNAc(b1-3)Gal(b1-4)[Fuc(a1-3)]GlcNAc
Outline: as §1

[18] = target: Gal(b1-4)GlcNAc(b1-3)GalNAc
Outline: as §1

[19] = target: Gal(b1-4)GlcNAc(b1-3)[Fuc(a1-3)GlcNAc(b1-6)]Gal(b1-4)Glc
Outline: as §1

[20] = target: Gal(b1-4)GlcNAc(b1-3)[Gal(b1-4)GlcNAc(b1-6)]Gal(b1-4)GlcNAc
Outline: as §1

[21] = target: Gal(b1-4)GlcNAc(b1-3)[GlcNAc(b1-6)]Gal(b1-4)GlcNAc
Outline: as §1

[22] = target: Gal(b1-4)GlcNAc(b1-6)Gal(b1-4)GlcNAc
Outline: as §1

[23] = target: Gal(b1-4)GlcNAc(b1-6)GalNAc
Outline: as §1

[24] = target: Gal(b1-4)GlcNAc(b1-6)[Gal(b1-3)]GalNAc
Outline: as §1

[25] = target: Gal(b1-4)GlcNAc(b1-6)[Gal(b1-4)GlcNAc(b1-3)]GalNAc
Outline: as §1

[26] = target: Gal(b1-4)GlcNAc6P
Outline: as §1

[27] = target: Gal(b1-6)Gal
Outline: as §1

[28] = target: Gal3S(b1-3)GalNAc
Outline: as §1

[29] = target: Gal3S(b1-3)GlcNAc
Outline: as §1

[30] = target: Gal3S(b1-3)[Fuc(a1-4)]GlcNAc
Outline: as §1

[31] = target: Gal3S(b1-4)Glc
Outline: as §1

[32] = target: Gal3S(b1-4)Glc6S
Outline: as §1

[33] = target: Gal3S(b1-4)GlcNAc
Outline: as §1

[34] = target: Gal3S(b1-4)[Fuc(a1-3)]Glc6S
Outline: as §1

[35] = target: Gal3S(b1-4)[Fuc(a1-3)]GlcNAc
Outline: as §1

[36] = target: Gal3S(b1-4)[Fuc(a1-3)]GlcNAc6S
Outline: as §1

[37] = target: Gal3S4S(b1-4)GlcNAc
Outline: as §1

B1: B3GalT2 (Rattus norvegicus) (protein)
chain: LMLQWRRRHCCFAKMSWNAKRSLFRTHLMGVLSLVFLFAMFLFFNHHDWLPGRPGFKENPVTYTFRGFRSTKTETNQSSLRNIWKEVVPQTLRPQTATNSNNTELSPQGVTGLENTLSANGSIYNEKGTGHPNSYHFKYIINEPEKCQEKSPFLILLIAAEPGQIEARRAIRQTWGNETLAPGIQITRIFLLGISIKLNGYLQHAIQEESIQYHDIIQQEYLDTYYNLTIKTLMGMNWVATYCPHTPYVMKTDSDMFVNTEYLIHKLLKPDLPPRHNYFTGYLMRGYAPNRNKDSKWYMPPDLYPSERYPVFCSGTGYVFSGDLAEKIFKVSLGIRRLHLEDVYVGICLAKLRVDPVPPPNEFVFNHWRVSYSSCKYSHLITSHQFQPSELIKYWNHLQQNKHNACVNAAKEKAGRYRHRKLH
[1]
  glycan array binding signal (z-score): -0.101
[2]
  glycan array binding signal (z-score): -0.963
[3]
  glycan array binding signal (z-score): -0.305
[4]
  glycan array binding signal (z-score): 1.32
[5]
  glycan array binding signal (z-score): -0.835
[6]
  glycan array binding signal (z-score): -0.937
[7]
  glycan array binding signal (z-score): 0.027
[8]
  glycan array binding signal (z-score): -0.286
[9]
  glycan array binding signal (z-score): 0.196
[10]
  glycan array binding signal (z-score): 1.48
[11]
  glycan array binding signal (z-score): 0.111
[12]
  glycan array binding signal (z-score): 1.2
[13]
  glycan array binding signal (z-score): -0.978
[14]
  glycan array binding signal (z-score): 0.143
[15]
  glycan array binding signal (z-score): -0.734
[16]
  glycan array binding signal (z-score): 0.38
[17]
  glycan array binding signal (z-score): -0.566
[18]
  glycan array binding signal (z-score): 0.538
[19]
  glycan array binding signal (z-score): -0.56
[20]
  glycan array binding signal (z-score): -0.553
[21]
  glycan array binding signal (z-score): -0.287
[22]
  glycan array binding signal (z-score): 0.189
[23]
  glycan array binding signal (z-score): 0.384
[24]
  glycan array binding signal (z-score): 0.012
[25]
  glycan array binding signal (z-score): 0.46
[26]
  glycan array binding signal (z-score): 0.324
[27]
  glycan array binding signal (z-score): -0.134
[28]
  glycan array binding signal (z-score): 0.283
[29]
  glycan array binding signal (z-score): 0.27
[30]
  glycan array binding signal (z-score): 0.497
[31]
  glycan array binding signal (z-score): 0.307
[32]
  glycan array binding signal (z-score): 0.421
[33]
  glycan array binding signal (z-score): 0.129
[34]
  glycan array binding signal (z-score): -0.161
[35]
  glycan array binding signal (z-score): 0.787
[36]
  glycan array binding signal (z-score): 0.613
[37]
  glycan array binding signal (z-score): 0.948
